Results are given in words; binding and its absence hold for the method and conditions named. Binding seen in cells or lysates may run through a third protein. Some entries that bind do so weakly or less than the wild type. Tags and fused reporters may be left off the sequences shown.
Target: T1, AtMAX2 (At2g42620), N-terminal split YFP fusion (rBiFC) (Arabidopsis) (UniProt Q9SIM9)
T1 sequence: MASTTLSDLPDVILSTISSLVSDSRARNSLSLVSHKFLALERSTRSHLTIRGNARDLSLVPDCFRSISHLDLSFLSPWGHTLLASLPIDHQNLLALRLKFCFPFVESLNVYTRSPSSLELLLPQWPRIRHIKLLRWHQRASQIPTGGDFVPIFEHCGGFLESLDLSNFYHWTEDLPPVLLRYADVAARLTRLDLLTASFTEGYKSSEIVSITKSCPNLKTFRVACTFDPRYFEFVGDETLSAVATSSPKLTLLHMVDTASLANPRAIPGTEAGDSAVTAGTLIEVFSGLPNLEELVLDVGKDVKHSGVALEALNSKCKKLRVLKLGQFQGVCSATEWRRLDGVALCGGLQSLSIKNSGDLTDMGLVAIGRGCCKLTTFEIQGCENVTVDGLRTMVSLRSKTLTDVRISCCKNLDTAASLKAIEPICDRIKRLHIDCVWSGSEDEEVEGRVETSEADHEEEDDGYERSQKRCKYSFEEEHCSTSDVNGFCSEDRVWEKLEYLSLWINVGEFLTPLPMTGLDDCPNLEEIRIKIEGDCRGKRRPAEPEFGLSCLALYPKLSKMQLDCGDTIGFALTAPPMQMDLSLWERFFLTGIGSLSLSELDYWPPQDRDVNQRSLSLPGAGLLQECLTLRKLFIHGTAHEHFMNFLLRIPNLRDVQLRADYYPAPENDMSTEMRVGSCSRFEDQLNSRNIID
Assay: split reporter; ratiometric BiFC (2in1 vector, N-terminal split YFP fusions, constitutive RFP cassette) in tobacco leaf epidermal cells; confocal microscopy, nuclear YFP/RFP ratio

Sequences of proteins named here, by UniProt entry; tags and fusion partners are left off.
UniProt Q39255: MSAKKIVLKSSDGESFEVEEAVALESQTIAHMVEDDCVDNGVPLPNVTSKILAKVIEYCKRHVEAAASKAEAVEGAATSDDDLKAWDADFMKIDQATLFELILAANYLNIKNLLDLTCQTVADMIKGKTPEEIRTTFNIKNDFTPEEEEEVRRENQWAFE

binding: binds
Substance: AtSKP1 (At1g75950), N-terminal split YFP fusion (rBiFC) (from UniProt Q39255 1-160)
